System: calf-thymus DNA
Test: Intercalator displacement titration for DNA binding constants
Details: 10 mM Tris, 10 mM NaCl, pH 7.5; fit to McGhee-von Hippel equation

Row | Substance | binding site size (s)
1 | [Ru2(bpy)2(tpphz)(CH3CN)4]^4+ | 2.5
2 | [Ru2(phen)4tatpq]^4+ [[Ru2(phen)4(tatpq)]^4+] | 1.7
3 | [Ru2(phen)4tatpp]^4+ [[Ru2(phen)4(tatpp)]^4+] | 2.2
4 | [Ru2(bpy)2(tpphz)(CO)4]^4+ | 1.3
